Taken from: PubChem BioAssay AID1259405 (NCATS, 2018)
Here is one part, drawn at random, of about 50,000 reagents tested. Of all reagents, about 4,000 (8%) got an active call. 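Mouse siRNA library applied to hamster cells; one well for each siRNA.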 Entries without a mark were called inactive.

Screen: 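Knock-downs that lift recombinant protein yield in hamster ovary cells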 (primary screen)
System: Chinese hamster CHO-K1 ovary cells with stable secreted eGFP expression
Knock-down reagent: single siRNA against mouse genes, 0.8 pmol siRNA per well (2 µl of 400 nM stock)
Timing: 3 days
Detection: 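Per-well intracellular GFP measured by laser scanning cytometry, plus viability from ATP luminescence, each relative to plate median of non-targeting control wells, in %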
Reading the numbers: GFP, % of control: higher = more GFP per well, higher productivity; viability (ATP), % of control: higher = more viable cells (more ATP)
Active means: 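a knock-down is called active if GFP reaches 120% or more of non-targeting control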

Gene | PubChem SID | GFP, % of control | viability (ATP), % of control
Or9k2 (olfactory receptor family 9 subfamily K member 2) | SID363545026 | 56.5 | 47
Or9k2 (olfactory receptor family 9 subfamily K member 2) | SID363551354 | 51.9 | 51.2
Or9k2 (olfactory receptor family 9 subfamily K member 2) | SID363557903 | 85.7 | 44.5
Fam243 (family with sequence similarity 243) | SID363542293 | 96.4 | 67.4
Fam243 (family with sequence similarity 243) | SID363551784 | 94.2 | 69.8
Fam243 (family with sequence similarity 243) | SID363559389 | 87.2 | 76.7
Uhmk1 (U2AF homology motif (UHM) kinase 1) | SID363569335 | 37.2 | 43.2
Uhmk1 (U2AF homology motif (UHM) kinase 1) | SID363577079 | 91.2 | 75.8
Uhmk1 (U2AF homology motif (UHM) kinase 1) | SID363578487 | 122 (active) | 57.9
Atf1 (activating transcription factor 1) | SID363573509 | 91 | 85.8
Atf1 (activating transcription factor 1) | SID363588748 | 80.9 | 68.4
Psmc1 (protease (prosome, macropain) 26S subunit, ATPase 1) | SID363569603 | 91.8 | 90.1
Psmc1 (protease (prosome, macropain) 26S subunit, ATPase 1) | SID363577347 | 110 | 103
Psmc1 (protease (prosome, macropain) 26S subunit, ATPase 1) | SID363578755 | 32.4 | 9.13
Or14j3 (olfactory receptor family 14 subfamily J member 3) | SID363544386 | 60.4 | 63.3
Or14j3 (olfactory receptor family 14 subfamily J member 3) | SID363550714 | 55.2 | 54.2
Or14j3 (olfactory receptor family 14 subfamily J member 3) | SID363557263 | 88.1 | 46.6
Dlx4 (distal-less homeobox 4) | SID363545888 | 118 | 89
Dlx4 (distal-less homeobox 4) | SID363549401 | 69.7 | 74.2
Dlx4 (distal-less homeobox 4) | SID363563207 | 44.8 | 34.1
Slitrk1 (SLIT and NTRK-like family, member 1) | SID363544356 | 126 (active) | 114
Slitrk1 (SLIT and NTRK-like family, member 1) | SID363550684 | 118 | 89.9
Slitrk1 (SLIT and NTRK-like family, member 1) | SID363557233 | 110 | 67.4
Hdac2 (histone deacetylase 2) | SID363584496 | 70.8 | 74.8
Hdac2 (histone deacetylase 2) | SID363589526 | 92.5 | 108
Slc38a7 | SID363547143 | 88.5 | 32.2
Slc38a7 | SID363549955 | 69.9 | 80.3
Slc38a7 | SID363588009 | 71.1 | 60.4
Or5b113 (olfactory receptor family 5 subfamily B member 113) | SID363544610 | 74.8 | 71.3
Or5b113 (olfactory receptor family 5 subfamily B member 113) | SID363550938 | 66.8 | 90.6
Or5b113 (olfactory receptor family 5 subfamily B member 113) | SID363557487 | 71.2 | 71.3
H2-M2 (histocompatibility 2, M region locus 2) | SID363553744 | 49.8 | 62.3
H2-M2 (histocompatibility 2, M region locus 2) | SID363561701 | 180 (active) | 85.6
H2-M2 (histocompatibility 2, M region locus 2) | SID363565439 | 80 | 76.9
Lgi1 (leucine-rich repeat LGI family, member 1) | SID363544288 | 115 | 62.1
Lgi1 (leucine-rich repeat LGI family, member 1) | SID363550616 | 61.3 | 80.8
Lgi1 (leucine-rich repeat LGI family, member 1) | SID363557165 | 84.8 | 83.9
Chdh (choline dehydrogenase) | SID363575234 | 113 | 76.8
Chdh (choline dehydrogenase) | SID363580866 | 72 | 70.7
Chdh (choline dehydrogenase) | SID363582978 | 65.3 | 61.9
Saxo2 (stabilizer of axonemal microtubules 2) | SID363550354 | 81.6 | 86.8
Saxo2 (stabilizer of axonemal microtubules 2) | SID363564863 | 68.1 | 69.7
Saxo2 (stabilizer of axonemal microtubules 2) | SID363588408 | 122 (active) | 110
Il17rd (interleukin 17 receptor D) | SID363540196 | 86 | 94.6
Il17rd (interleukin 17 receptor D) | SID363541948 | 95.7 | 60
Il17rd (interleukin 17 receptor D) | SID363543719 | 92.6 | 121
Il17rd (interleukin 17 receptor D) | SID363551455 | 74.3 | 68.6
Il17rd (interleukin 17 receptor D) | SID363559060 | 99.3 | 88.8
Il17rd (interleukin 17 receptor D) | SID363566864 | 79.2 | 80.4
Ptgdr2 (prostaglandin D2 receptor 2) | SID363571069 | 92.1 | 70.7
Ptgdr2 (prostaglandin D2 receptor 2) | SID363571421 | 92 | 82.8
Ptgdr2 (prostaglandin D2 receptor 2) | SID363571773 | 84.4 | 80.6
Sec22a (SEC22 homolog A, vesicle trafficking protein) | SID363555109 | 110 | 76.7
Sec22a (SEC22 homolog A, vesicle trafficking protein) | SID363568556 | 82.7 | 63.7
Sec22a (SEC22 homolog A, vesicle trafficking protein) | SID363586615 | 72.8 | 87.8
Hrob (homologous recombination factor with OB-fold) | SID363547130 | 51 | 69.9
Hrob (homologous recombination factor with OB-fold) | SID363549942 | 76.5 | 88.3
Hrob (homologous recombination factor with OB-fold) | SID363587996 | 136 (active) | 89.3
Cd6 (CD6 antigen) | SID363568606 | 96.8 | 68.1
Cd6 (CD6 antigen) | SID363575998 | 114 | 62.7
Cd6 (CD6 antigen) | SID363578814 | 88.5 | 68.9
Pla2g2f (phospholipase A2, group IIF) | SID363569312 | 75.9 | 68.6
Pla2g2f (phospholipase A2, group IIF) | SID363577056 | 67.7 | 58.6
Pla2g2f (phospholipase A2, group IIF) | SID363578464 | 116 | 63.6
Rgs6 (regulator of G-protein signaling 6) | SID363570264 | 129 (active) | 90.5
Rgs6 (regulator of G-protein signaling 6) | SID363576600 | 106 | 110
Rgs6 (regulator of G-protein signaling 6) | SID363579768 | 63.2 | 70.6
Apln (apelin) | SID363541433 | 73.8 | 68.3
Apln (apelin) | SID363556060 | 59.4 | 55.2
Apln (apelin) | SID363566349 | 85.4 | 72.3
Uqcc1 (ubiquinol-cytochrome c reductase complex assembly factor 1) | SID363543907 | 85.6 | 91.9
Uqcc1 (ubiquinol-cytochrome c reductase complex assembly factor 1) | SID363551643 | 59.1 | 72.2
Uqcc1 (ubiquinol-cytochrome c reductase complex assembly factor 1) | SID363559248 | 75.8 | 99.2
Tspan10 (tetraspanin 10) | SID363541769 | 104 | 74.4
Tspan10 (tetraspanin 10) | SID363553361 | 86.3 | 71.2
Tspan10 (tetraspanin 10) | SID363566685 | 80.7 | 60.1
Slc25a15 | SID363569948 | 111 | 104
Slc25a15 | SID363576988 | 66.7 | 89.6
Slc25a15 | SID363578396 | 69.6 | 105
Phf11d (PHD finger protein 11D) | SID363545840 | 109 | 70.5
Phf11d (PHD finger protein 11D) | SID363549353 | 59.9 | 79.4
Phf11d (PHD finger protein 11D) | SID363563159 | 43.8 | 75
Gmds (GDP-mannose 4, 6-dehydratase) | SID363569049 | 114 | 108
Gmds (GDP-mannose 4, 6-dehydratase) | SID363583481 | 84.8 | 83.2
Pdzd4 (PDZ domain containing 4) | SID363554472 | 33.4 | 36.4
Pdzd4 (PDZ domain containing 4) | SID363567919 | 60.3 | 72
Pdzd4 (PDZ domain containing 4) | SID363585978 | 71.8 | 119
Slfn9 (schlafen 9) | SID363542802 | 89.6 | 66.3
Slfn9 (schlafen 9) | SID363546319 | 92 | 116
Slfn9 (schlafen 9) | SID363548075 | 77 | 75.2
Mrpl30 (mitochondrial ribosomal protein L30) | SID363562143 | 102 | 87.2
Mrpl30 (mitochondrial ribosomal protein L30) | SID363567281 | 87.4 | 81.7
Mrpl30 (mitochondrial ribosomal protein L30) | SID363584638 | 92.3 | 74.8
Nat1 (N-acetyl transferase 1) | SID363570559 | 64.5 | 87.2
Nat1 (N-acetyl transferase 1) | SID363579359 | 45.8 | 74.1
Nat1 (N-acetyl transferase 1) | SID363583231 | 113 | 97.3
Gnb3 (guanine nucleotide binding protein (G protein), beta 3) | SID363570100 | 129 (active) | 99.8
Gnb3 (guanine nucleotide binding protein (G protein), beta 3) | SID363576436 | 73.2 | 65
Gnb3 (guanine nucleotide binding protein (G protein), beta 3) | SID363579604 | 75.6 | 38.1
Twnk (twinkle mtDNA helicase) | SID363554535 | 38 | 38
Twnk (twinkle mtDNA helicase) | SID363567982 | 129 (active) | 81.6
Twnk (twinkle mtDNA helicase) | SID363586041 | 48.2 | 60.7
Slc35e3 | SID363547646 | 78.2 | 83.6
Slc35e3 | SID363558415 | 104 | 88.9
Slc35e3 | SID363560173 | 79.3 | 76.9
Or2t44 (olfactory receptor family 2 subfamily T member 44) | SID363554139 | 72.7 | 61.2
Or2t44 (olfactory receptor family 2 subfamily T member 44) | SID363567586 | 95 | 62
Or2t44 (olfactory receptor family 2 subfamily T member 44) | SID363584943 | 37.5 | 88.3

8 entries already listed, ordered by “GFP, % of control”, high to low.
Gene | PubChem SID | GFP, % of control | viability (ATP), % of control
Gnb3 (guanine nucleotide binding protein (G protein), beta 3) | SID363570100 | 129 (active) | 99.8
Twnk (twinkle mtDNA helicase) | SID363567982 | 129 (active) | 81.6
Slc35e3 | SID363558415 | 104 | 88.9
Slc35e3 | SID363547646 | 78.2 | 83.6
Gnb3 (guanine nucleotide binding protein (G protein), beta 3) | SID363579604 | 75.6 | 38.1
Gnb3 (guanine nucleotide binding protein (G protein), beta 3) | SID363576436 | 73.2 | 65
Twnk (twinkle mtDNA helicase) | SID363586041 | 48.2 | 60.7
Twnk (twinkle mtDNA helicase) | SID363554535 | 38 | 38
